Laboratory results as given in article PMC7317789.
Results are given in words; binding and its absence hold for the method and conditions named. For some assays here: Binding seen in cells or lysates may run through a third protein. Some results given as binding are weak or reduced against the parent protein; the word gives no strength. Sequences can lack the tags named with a protein. One block for each binder: values may come before it.

Experiments:
[1] = target: SMALL LEAF AND BUSHY1 (SLB1), Gal4 DNA-binding domain fusion in pGBKT7 (Medicago truncatula); test: two-hybrid; Matchmaker Gold System; SLB1 in pGBKT7, MtASK1, MtASK2 and BS1 in pGADT7; yeast strain Y2H Gold; growth on SD/-Trp/-Leu/-His/-Ade (QDO), dark, 28°C, 3 d
[2] = target: SLB1 fused to the N-terminal half of YFP (SLB1-nYFP) (Medicago truncatula); test: split reporter; BiFC with split YFP in agro-infiltrated N. benthamiana leaf epidermal cells; SLB1-nYFP with cYFP fusions; fluorescence observed 48-60 h after infiltration, confocal microscope

binding [1]: binds
B1: BIG SEEDS1 (BS1), Gal4 activation domain fusion in pGADT7 (protein, UniProt A0A190V5K9 1-330)
chain: MNGGSTVSFRSILDRPLNQLTEDDISQLTREDCRRFLKDKGMRRPSWNKSQAIQQVISLKALLEPTDDDIPATVGVGVSSAIHHHHHHHPPQPPPKALDPEDTALELQKSTSPVAERPTETNDANVVNNPGGCAPSGSFGQMTIFYCGKVNVYDGVSPDKARSIMQLAAACPSSFPQDNPSNKNAAVWASPCNLPIDKEVLFPTDTAILQVAQTDKMVEYPLQYREKGSTARDADVEGQASRKVSLQRYLEKRKDRGRSKGKKLTGITSSNFEMYLNLPVKLHASNGNSSRSSTDSPPQPRLPLVSSGSAENQPKVTLPIDLNDKDVQEC

binding [2]: binds
B2: BS1 fused to the C-terminal half of YFP (BS1-cYFP) (protein, UniProt A0A190V5K9 1-330)
chain: B1 chain
